# Assay results reported in article PMC7819943, “Rice protein-binding microarrays: a tool to detect cis-acting elements near promoter regions in rice”.
# Sequences of proteins named here, by UniProt entry; tags and fusion partners are left off.
# UniProt Q0JBA9, entry or part of it: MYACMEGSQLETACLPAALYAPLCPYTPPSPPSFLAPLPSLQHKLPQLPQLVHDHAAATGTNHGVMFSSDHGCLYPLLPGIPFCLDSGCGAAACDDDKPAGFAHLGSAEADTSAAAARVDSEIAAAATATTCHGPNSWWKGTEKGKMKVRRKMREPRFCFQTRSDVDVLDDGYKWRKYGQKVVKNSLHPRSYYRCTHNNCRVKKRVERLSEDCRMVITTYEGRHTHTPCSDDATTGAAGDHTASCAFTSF
# The other results are listed elsewhere or left out.
# Molecular target: OsWRKY34 (Oryza sativa, UniProt Q0JBA9 1-250)
# Assay: protein-binding microarray (RPBM); PBS, 2% BSA, 51.3 ng/ul salmon testes DNA, 50 uM zinc acetate, 200 nM TF, 25 C, 1 h; high values mean tight binding
# Conditions: protein: recombinant; tags: N-terminal polyhistidine and DsRed monomer fusion (pET32a); label: CyDye5-dUTP incorporated in the synthesized complementary strand; 3' TTTTT single-stranded linker to array surface; dsDNA, one strand shown
# Summary of the method: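 Transcription factors were each fused at the N-terminus to a polyhistidine tag plus DsRed and expressed in E. coli BL21-CodonPlus before Ni–NTA purification. Binding to a double-stranded custom Agilent array was carried out with 200 nM protein at 25 °C for 1 h in PBS, 2% BSA, salmon testes DNA and 50 µM zinc acetate. The binding signal is per-feature fluorescence intensity, in arbitrary units, on an Axon 4000B scanner.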
row,Sequence,binding signal
1,AGCTGCTTAGTTGGGCACTTTGAGTTGTGATATATTAATTCGGAGTCACCTAGTGCAG,9180 fluorescence intensity (a.u.)
2,TTTTTATGGTTTAATGTTTCTGTATTTGCTACCGTTTTCCCGGAGTCACCTAGTGCAG,11600 fluorescence intensity (a.u.)
3,GTATTTTCGCGTTCCAAAATCTGTTCGCTGGACCCGGCCGCGGAGTCACCTAGTGCAG,9170 fluorescence intensity (a.u.)
4,CTTCTCCTTGCACCTGTTGACCGCTAGCACCGCGGCTTCCCGGAGTCACCTAGTGCAG,13700 fluorescence intensity (a.u.)
5,TTAATGGGTTTTTTGTGCTAATTATTCAGTCAACCTCTGCCGGAGTCACCTAGTGCAG,8920 fluorescence intensity (a.u.)
6,TCTACCCGCAGCGTGCTCACATGGCTCACAGCTTCCGTTCCGGAGTCACCTAGTGCAG,9180 fluorescence intensity (a.u.)
7,AAATTGTAGATAGCTTGTTTGTGCATAATCCTTTTGTTTTCGGAGTCACCTAGTGCAG,9960 fluorescence intensity (a.u.)
8,GGGCTTTTAAATTTGGTTTATATTGAATCCTCTACCGTTACGGAGTCACCTAGTGCAG,10700 fluorescence intensity (a.u.)
9,TTTTGTTTGTTTTCATTCGGCGTCGCCGAAGGGGTGGAACCGGAGTCACCTAGTGCAG,8380 fluorescence intensity (a.u.)
10,GATTCTATTACCGGATTGGGTTTCTATGTATGCAGTTGTTCGGAGTCACCTAGTGCAG,12700 fluorescence intensity (a.u.)
11,TACTTTTCGTTTGCAAATATGTCGTTTCGCTTATTCCGCGCGGAGTCACCTAGTGCAG,13800 fluorescence intensity (a.u.)
12,TCCCAGATCTCACACTCCATCTCGCGAGCGCGCCGACGCGCGGAGTCACCTAGTGCAG,9610 fluorescence intensity (a.u.)
13,GTTGACGTCTCCCAAGTGCCACACCCGCCGCCACGTCACTCGGAGTCACCTAGTGCAG,8880 fluorescence intensity (a.u.)
14,GATGTACGTCCAGCTGTCCTGCTCCAAATTTCGTTGTTACCGGAGTCACCTAGTGCAG,8130 fluorescence intensity (a.u.)
15,GTTGGTTAAAAAGTCAACGACGTCATATATTAAAATACGGCGGAGTCACCTAGTGCAG,9110 fluorescence intensity (a.u.)
16,TCTCCGTCGCCTTCTGATCCCCGCGCGCGCGGCTGCCTATCGGAGTCACCTAGTGCAG,9390 fluorescence intensity (a.u.)
17,GATAAGACAAACCACCGTGCTCCGCCGCGTCGCTCACTCTCGGAGTCACCTAGTGCAG,8170 fluorescence intensity (a.u.)
18,CCTCTAACTCTCTATCCACTTCCTTAGCTTCCTTCTGTCGCGGAGTCACCTAGTGCAG,8390 fluorescence intensity (a.u.)
19,CCTATATTTAATACTTTATGCTGCTGTTCAAACGTTCGATCGGAGTCACCTAGTGCAG,8140 fluorescence intensity (a.u.)
20,GCCACATTACCGCCACTTATGACAAGTACTAAGTCAAACCCGGAGTCACCTAGTGCAG,8790 fluorescence intensity (a.u.)
21,GTGAGTATGTGAGTGTGGTATTGCATATATTATATAATAACGGAGTCACCTAGTGCAG,11800 fluorescence intensity (a.u.)

row,Sequence,binding signal
1,AAGCACAACTTTTCATTTTTTATATTTGCACATTTTATTTCGGAGTCACCTAGTGCAG,12900 fluorescence intensity (a.u.)
2,TCACCTCTTTTTTTATATCTTCTTAATCTTATCTTTTTTTCGGAGTCACCTAGTGCAG,9150 fluorescence intensity (a.u.)
3,GAGCAGTTCCATCACCGTCGCACTCTGTCTCCTTGATCCGCGGAGTCACCTAGTGCAG,14400 fluorescence intensity (a.u.)
4,TCTACACAATTCAAAATCCGGCCCTGTTTATTTTGTACTACGGAGTCACCTAGTGCAG,8420 fluorescence intensity (a.u.)
5,ACTTGTCACTGTCAGTCTTGGACCCAAATGCCATAAGTCACGGAGTCACCTAGTGCAG,11100 fluorescence intensity (a.u.)
6,ACTAGACTGTATTTACTCGTGTACAGTACATGTGTACTTTCGGAGTCACCTAGTGCAG,8210 fluorescence intensity (a.u.)
7,GGCTGTGTATTAAGTATGTTTGCATTGTAATTCTCTTTTTCGGAGTCACCTAGTGCAG,11600 fluorescence intensity (a.u.)
8,TCATAGAAGCATGCTCACGGTTAACCTGGTATTCACTCTTCGGAGTCACCTAGTGCAG,9130 fluorescence intensity (a.u.)
9,TAGGGCCCAGCCCAGAGGGCAGTGTTGACCAGCTTTGACCCGGAGTCACCTAGTGCAG,8920 fluorescence intensity (a.u.)
10,CTGTCTTGCTATGTATGTGTACACCAATTTTAATATACGACGGAGTCACCTAGTGCAG,11500 fluorescence intensity (a.u.)
11,GCCGTCCGTCGTCCTCCCGCTGCCGCCGCCGCGCGCGTCGCGGAGTCACCTAGTGCAG,8120 fluorescence intensity (a.u.)
12,GTTACCGAAGTTTTACTTTATACCATATGTACTCTATCTACGGAGTCACCTAGTGCAG,8060 fluorescence intensity (a.u.)
13,CCTCCTCCACACATCCCTAACCCACCACATCCAAACCCCTCGGAGTCACCTAGTGCAG,8730 fluorescence intensity (a.u.)
14,CCCCGCAGTTCTATTTTGATACGAGCGGCTATGCTTTTACCGGAGTCACCTAGTGCAG,8270 fluorescence intensity (a.u.)
15,CTTGCTTCTCGCTTGGCGTTCATGGTGTCGTGCAAACCCTCGGAGTCACCTAGTGCAG,10100 fluorescence intensity (a.u.)
16,CCGAGGTCGTAGGTTTTTCTTGCTTCTTCTTCTTCTTCTTCGGAGTCACCTAGTGCAG,10600 fluorescence intensity (a.u.)
17,CGATCGTACTTTCTGGTGTACATAGTATCTGCACTTTTTCCGGAGTCACCTAGTGCAG,10200 fluorescence intensity (a.u.)
18,AGTATTTTTGGTTCTTTCACAAACAGTACTTTTAAATTCACGGAGTCACCTAGTGCAG,8090 fluorescence intensity (a.u.)
19,TATCTATCTAGCTCGATCCATCACTCCATCACTCATCAAGCGGAGTCACCTAGTGCAG,9680 fluorescence intensity (a.u.)
20,TCCCTCCGTCCGTACTGCACTCTCGCTCGTTCCCCTCGCACGGAGTCACCTAGTGCAG,11500 fluorescence intensity (a.u.)
21,CTCTCTCCGATCCGGATCTTCCTACCCACTCCGGCGAGCCCGGAGTCACCTAGTGCAG,12900 fluorescence intensity (a.u.)

# Looked up one by one from the list above (two):
row,Sequence,binding signal
4,TCTACACAATTCAAAATCCGGCCCTGTTTATTTTGTACTACGGAGTCACCTAGTGCAG,8420 fluorescence intensity (a.u.)
7,GGCTGTGTATTAAGTATGTTTGCATTGTAATTCTCTTTTTCGGAGTCACCTAGTGCAG,11600 fluorescence intensity (a.u.)
